Experimental data: PubChem BioAssay AID504791 (Drosophila RNAi Screening Center, 2011)
The deposit covers about 23,000 reagents; this is a random part of those with a known target gene and a result. In the full data, 199 (0.86%) got an active call. 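Plate-scaled ratios behind the calls are not deposited; printed light signals are raw; many rows marked increased or decreased are still called inactive.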 Entries without a mark were called inactive. Not given: the direction of the score.

Screen: 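Genes whose knock-down strengthens or weakens small-RNA reporter silencing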 (primary screen)
Cell system: Drosophila S2-derived reporter cells
Reagent: long dsRNA against Drosophila genes, about 150-250 ng dsRNA per well (siRNA assay); about 80-120 ng (miRNA assay)
Timing: about 5 days (siRNA assay); about 4 days (miRNA assay)
Conditions: copper sulfate induction of reporters: 25 µM (siRNA assay); 200 mM stated (miRNA assay), 1-2 days before reading
Detection: 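Dual luciferase assay: Renilla to firefly signal ratio in each well, scaled to the mean ratio of its plate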
Rule for the call: 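First-pass picks had plate-scaled ratios over 1.5 for the siRNA assay, over 1.6 for the miRNA assay, or under 0.6; two distinct dsRNAs had to score alike on retest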

| gene knocked down | DRSC id | stable siRNA reporter change | miRNA reporter change | stable assay Renilla, run 1 (luminescence) | stable assay firefly, run 1 (luminescence) |
| --- | --- | --- | --- | --- | --- |
| Prosalpha3T | DRSC15226 | – | – | 7155 | 3.92e5 |
| Egm | DRSC07319 | – | – | 8282 | 4.82e5 |
| Egm | DRSC22860 | – | – | 6104 | 6.87e5 |
| GstZ2 | DRSC16479 | – | – | 8104 | 4.16e5 |
| CG30378 | DRSC05071 | – | – | 5378 | 4.32e5 |
| drosha | DRSC07607 | – | reporter ratio raised past the hit cutoff (active) | 7139 | 5.08e5 |
| mri | DRSC08259 | – | – | 8391 | 2.45e5 |
| kni | DRSC11891 | – | – | 6490 | 2.91e5 |
| kni | DRSC23093 | – | – | 3511 | 2.25e5 |
| axed | DRSC08833 | reporter ratio raised past the hit cutoff | – | 6091 | 2.74e5 |
| axed | DRSC10982 | – | – | 5792 | 3.29e5 |
| CG3216 | DRSC04347 | – | – | 7155 | 4.59e5 |
| Mtk | DRSC07475 | – | – | 5347 | 2.97e5 |
| jp | DRSC02213 | – | – | 5798 | 3.43e5 |
| jp | DRSC02744 | – | – | 5707 | 2.77e5 |
| CG11263 | DRSC09832 | – | – | 5951 | 4.09e5 |
| CG42271 | DRSC19809 | – | – | 9181 | 6.00e5 |
| CG42271 | DRSC22894 | – | – | 4444 | 4.12e5 |
| epsilonTry | DRSC07611 | – | – | 6798 | 4.38e5 |
| CG14221 | DRSC19578 | – | – | 5111 | 3.18e5 |
| Rtc1 | DRSC20285 | – | – | 9561 | 6.12e5 |
| tRNA:Leu-CAA-2-3 | DRSC13633 | – | – | 5750 | 4.43e5 |
| RhoGEF4 | DRSC11011 | – | – | 7170 | 3.38e5 |
| CG18294 | DRSC09891 | – | – | 7211 | 4.22e5 |
| Nop60B | DRSC04627 | – | – | 15666 | 1.24e6 |
| Ppcs | DRSC14127 | – | – | 8395 | 3.76e5 |
| Toll-9 | DRSC11776 | – | – | 7126 | 4.10e5 |
| CG31525 | DRSC12004 | – | – | 5695 | 3.36e5 |
| CG6000 | DRSC15938 | – | – | 6974 | 3.32e5 |
| CG33303 | DRSC02848 | – | – | 6563 | 3.24e5 |
| ena | DRSC05779 | – | – | 5456 | 3.68e5 |
| ena | DRSC07610 | – | – | 9929 | 4.20e5 |
| CG4793 | DRSC01966 | – | – | 7118 | 3.24e5 |
| CG34375 | DRSC14684 | – | – | 6775 | 3.98e5 |
| CG34375 | DRSC14685 | – | – | 6723 | 2.84e5 |

In a second layout: results already given.
{"gene knocked down": "CG18294", "DRSC id": "DRSC09891", "stable assay Renilla, run 1 (luminescence)": 7211, "stable assay firefly, run 1 (luminescence)": 4.22e5}
{"gene knocked down": "Nop60B", "DRSC id": "DRSC04627", "stable assay Renilla, run 1 (luminescence)": 15666, "stable assay firefly, run 1 (luminescence)": 1.24e6}
{"gene knocked down": "Ppcs", "DRSC id": "DRSC14127", "stable assay Renilla, run 1 (luminescence)": 8395, "stable assay firefly, run 1 (luminescence)": 3.76e5}
{"gene knocked down": "Toll-9", "DRSC id": "DRSC11776", "stable assay Renilla, run 1 (luminescence)": 7126, "stable assay firefly, run 1 (luminescence)": 4.10e5}
{"gene knocked down": "CG31525", "DRSC id": "DRSC12004", "stable assay Renilla, run 1 (luminescence)": 5695, "stable assay firefly, run 1 (luminescence)": 3.36e5}
